According to the supplement of paper PMC10849652:
The list shows a part of the results.

Sequences of proteins named here, by UniProt entry; tags and fusion partners are left off. A change or cut given only in a name is not applied to a line headed by its entry.
UniProt Q8N3X1: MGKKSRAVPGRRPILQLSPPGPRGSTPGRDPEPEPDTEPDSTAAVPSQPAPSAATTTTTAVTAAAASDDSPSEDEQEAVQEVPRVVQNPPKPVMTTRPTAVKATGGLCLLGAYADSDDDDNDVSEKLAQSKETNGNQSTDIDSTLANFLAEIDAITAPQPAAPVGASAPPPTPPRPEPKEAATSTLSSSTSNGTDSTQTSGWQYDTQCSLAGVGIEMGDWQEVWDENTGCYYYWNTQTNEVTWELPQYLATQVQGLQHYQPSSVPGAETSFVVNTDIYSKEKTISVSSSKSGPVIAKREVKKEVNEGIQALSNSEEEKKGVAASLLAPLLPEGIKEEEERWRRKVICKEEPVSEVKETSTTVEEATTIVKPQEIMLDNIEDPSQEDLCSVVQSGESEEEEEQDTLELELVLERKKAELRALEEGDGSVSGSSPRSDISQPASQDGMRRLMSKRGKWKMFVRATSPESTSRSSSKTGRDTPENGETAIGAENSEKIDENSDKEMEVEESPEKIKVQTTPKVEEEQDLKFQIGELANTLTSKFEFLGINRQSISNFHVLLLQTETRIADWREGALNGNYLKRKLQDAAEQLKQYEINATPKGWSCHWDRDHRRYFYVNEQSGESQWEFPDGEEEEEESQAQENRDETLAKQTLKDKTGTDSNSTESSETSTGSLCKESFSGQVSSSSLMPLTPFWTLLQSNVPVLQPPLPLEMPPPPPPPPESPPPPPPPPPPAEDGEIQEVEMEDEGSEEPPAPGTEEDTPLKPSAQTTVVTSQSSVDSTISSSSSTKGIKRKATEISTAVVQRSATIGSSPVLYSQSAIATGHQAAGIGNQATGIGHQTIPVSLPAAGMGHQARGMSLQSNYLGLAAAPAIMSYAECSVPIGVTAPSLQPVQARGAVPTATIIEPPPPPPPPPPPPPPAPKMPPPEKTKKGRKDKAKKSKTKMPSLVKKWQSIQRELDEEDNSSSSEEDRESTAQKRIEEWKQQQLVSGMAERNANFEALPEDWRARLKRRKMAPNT
UniProt O95684: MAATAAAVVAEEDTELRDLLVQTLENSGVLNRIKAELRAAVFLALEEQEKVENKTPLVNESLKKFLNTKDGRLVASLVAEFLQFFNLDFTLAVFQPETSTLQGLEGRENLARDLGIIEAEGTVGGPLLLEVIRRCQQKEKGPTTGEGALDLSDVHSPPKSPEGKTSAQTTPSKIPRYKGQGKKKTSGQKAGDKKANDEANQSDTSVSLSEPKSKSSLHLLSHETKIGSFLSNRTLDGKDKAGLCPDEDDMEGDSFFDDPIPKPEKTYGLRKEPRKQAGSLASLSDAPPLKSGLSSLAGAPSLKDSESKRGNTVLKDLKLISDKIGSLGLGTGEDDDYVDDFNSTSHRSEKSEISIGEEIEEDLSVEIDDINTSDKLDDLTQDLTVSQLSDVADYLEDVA
UniProt Q5HYJ3: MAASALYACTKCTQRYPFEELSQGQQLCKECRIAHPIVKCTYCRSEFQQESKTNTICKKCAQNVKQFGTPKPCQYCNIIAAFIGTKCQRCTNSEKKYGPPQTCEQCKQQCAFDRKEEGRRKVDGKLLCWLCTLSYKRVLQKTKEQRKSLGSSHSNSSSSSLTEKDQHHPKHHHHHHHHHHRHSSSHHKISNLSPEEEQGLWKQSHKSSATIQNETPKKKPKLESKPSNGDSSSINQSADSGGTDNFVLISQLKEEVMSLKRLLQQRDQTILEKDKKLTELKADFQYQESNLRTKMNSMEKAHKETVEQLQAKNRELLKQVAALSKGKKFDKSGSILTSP
UniProt Q9Y5Y0: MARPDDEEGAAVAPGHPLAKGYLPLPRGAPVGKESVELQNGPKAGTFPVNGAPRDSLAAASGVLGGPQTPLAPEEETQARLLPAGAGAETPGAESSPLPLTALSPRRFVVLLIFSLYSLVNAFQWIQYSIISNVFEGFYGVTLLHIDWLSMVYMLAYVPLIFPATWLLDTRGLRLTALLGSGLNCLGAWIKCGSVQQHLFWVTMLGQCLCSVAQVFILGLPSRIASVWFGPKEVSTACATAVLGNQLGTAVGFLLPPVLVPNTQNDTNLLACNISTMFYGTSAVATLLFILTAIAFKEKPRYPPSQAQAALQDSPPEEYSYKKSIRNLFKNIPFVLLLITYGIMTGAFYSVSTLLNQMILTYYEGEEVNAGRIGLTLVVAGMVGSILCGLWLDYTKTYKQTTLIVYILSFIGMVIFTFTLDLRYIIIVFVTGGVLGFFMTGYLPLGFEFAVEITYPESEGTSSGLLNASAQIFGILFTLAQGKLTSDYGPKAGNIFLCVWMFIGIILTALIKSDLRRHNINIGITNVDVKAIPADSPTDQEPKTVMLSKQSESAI
UniProt Q9H479: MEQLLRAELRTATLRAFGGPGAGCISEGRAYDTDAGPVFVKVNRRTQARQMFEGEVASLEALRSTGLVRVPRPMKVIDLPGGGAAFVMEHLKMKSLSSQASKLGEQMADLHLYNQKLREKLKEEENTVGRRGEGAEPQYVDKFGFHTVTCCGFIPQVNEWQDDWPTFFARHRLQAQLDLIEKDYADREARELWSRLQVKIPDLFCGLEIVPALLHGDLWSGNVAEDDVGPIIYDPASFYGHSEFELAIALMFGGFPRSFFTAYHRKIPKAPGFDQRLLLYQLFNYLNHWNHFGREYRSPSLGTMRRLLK
UniProt Q9UK73, whole entry, looked up: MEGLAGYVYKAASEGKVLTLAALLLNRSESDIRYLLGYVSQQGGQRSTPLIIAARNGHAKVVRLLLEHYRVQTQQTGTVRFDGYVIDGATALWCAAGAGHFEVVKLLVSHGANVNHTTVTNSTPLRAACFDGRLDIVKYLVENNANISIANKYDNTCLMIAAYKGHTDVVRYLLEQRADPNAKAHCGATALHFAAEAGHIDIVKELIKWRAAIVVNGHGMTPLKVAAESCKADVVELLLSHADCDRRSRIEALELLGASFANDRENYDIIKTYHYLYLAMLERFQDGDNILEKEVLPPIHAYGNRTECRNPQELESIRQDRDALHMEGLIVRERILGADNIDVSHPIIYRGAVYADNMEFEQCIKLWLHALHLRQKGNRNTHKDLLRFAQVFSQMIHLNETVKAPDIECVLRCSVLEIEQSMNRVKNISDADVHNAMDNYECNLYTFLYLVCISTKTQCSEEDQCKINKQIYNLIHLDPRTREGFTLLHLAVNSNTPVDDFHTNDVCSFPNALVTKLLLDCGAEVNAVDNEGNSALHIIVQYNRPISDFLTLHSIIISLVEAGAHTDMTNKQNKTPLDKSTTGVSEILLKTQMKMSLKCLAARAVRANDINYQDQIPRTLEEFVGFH
UniProt Q9HA64: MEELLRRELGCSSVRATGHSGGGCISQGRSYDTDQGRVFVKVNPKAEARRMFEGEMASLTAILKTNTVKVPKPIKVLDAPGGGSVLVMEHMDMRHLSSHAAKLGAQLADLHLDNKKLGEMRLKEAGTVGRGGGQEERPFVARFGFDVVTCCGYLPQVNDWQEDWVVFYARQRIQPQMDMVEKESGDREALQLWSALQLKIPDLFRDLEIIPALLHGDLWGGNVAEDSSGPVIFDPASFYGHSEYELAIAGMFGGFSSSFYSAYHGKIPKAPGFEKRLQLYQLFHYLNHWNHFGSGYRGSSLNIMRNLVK
UniProt Q6UN15: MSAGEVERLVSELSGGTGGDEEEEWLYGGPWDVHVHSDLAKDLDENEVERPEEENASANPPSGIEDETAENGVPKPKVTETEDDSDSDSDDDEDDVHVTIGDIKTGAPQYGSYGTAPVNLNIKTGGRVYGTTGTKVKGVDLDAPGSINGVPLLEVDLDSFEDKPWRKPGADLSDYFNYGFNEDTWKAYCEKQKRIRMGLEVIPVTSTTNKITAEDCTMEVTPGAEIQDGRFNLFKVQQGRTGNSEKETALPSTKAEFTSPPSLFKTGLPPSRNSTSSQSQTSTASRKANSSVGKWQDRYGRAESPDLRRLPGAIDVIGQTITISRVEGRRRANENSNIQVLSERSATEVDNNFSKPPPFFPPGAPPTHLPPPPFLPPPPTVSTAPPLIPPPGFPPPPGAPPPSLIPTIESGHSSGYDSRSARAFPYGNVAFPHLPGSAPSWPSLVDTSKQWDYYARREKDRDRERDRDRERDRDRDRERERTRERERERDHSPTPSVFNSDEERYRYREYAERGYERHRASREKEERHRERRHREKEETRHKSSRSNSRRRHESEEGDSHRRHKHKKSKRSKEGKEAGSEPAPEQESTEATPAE
UniProt Q96CP2: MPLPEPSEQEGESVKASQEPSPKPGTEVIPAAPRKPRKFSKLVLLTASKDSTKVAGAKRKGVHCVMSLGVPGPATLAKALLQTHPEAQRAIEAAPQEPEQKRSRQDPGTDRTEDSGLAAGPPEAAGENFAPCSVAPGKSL
UniProt Q52LJ0: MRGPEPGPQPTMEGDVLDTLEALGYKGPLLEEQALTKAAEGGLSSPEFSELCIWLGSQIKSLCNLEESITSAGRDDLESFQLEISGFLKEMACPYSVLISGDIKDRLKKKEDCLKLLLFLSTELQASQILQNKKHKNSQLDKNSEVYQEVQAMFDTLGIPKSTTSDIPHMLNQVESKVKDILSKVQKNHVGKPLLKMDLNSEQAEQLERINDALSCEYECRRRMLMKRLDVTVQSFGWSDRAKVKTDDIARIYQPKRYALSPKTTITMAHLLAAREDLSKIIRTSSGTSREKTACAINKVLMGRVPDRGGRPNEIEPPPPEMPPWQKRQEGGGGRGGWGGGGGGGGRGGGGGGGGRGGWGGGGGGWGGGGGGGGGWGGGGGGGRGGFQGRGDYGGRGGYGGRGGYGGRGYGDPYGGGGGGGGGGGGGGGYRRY
UniProt Q9UKT4: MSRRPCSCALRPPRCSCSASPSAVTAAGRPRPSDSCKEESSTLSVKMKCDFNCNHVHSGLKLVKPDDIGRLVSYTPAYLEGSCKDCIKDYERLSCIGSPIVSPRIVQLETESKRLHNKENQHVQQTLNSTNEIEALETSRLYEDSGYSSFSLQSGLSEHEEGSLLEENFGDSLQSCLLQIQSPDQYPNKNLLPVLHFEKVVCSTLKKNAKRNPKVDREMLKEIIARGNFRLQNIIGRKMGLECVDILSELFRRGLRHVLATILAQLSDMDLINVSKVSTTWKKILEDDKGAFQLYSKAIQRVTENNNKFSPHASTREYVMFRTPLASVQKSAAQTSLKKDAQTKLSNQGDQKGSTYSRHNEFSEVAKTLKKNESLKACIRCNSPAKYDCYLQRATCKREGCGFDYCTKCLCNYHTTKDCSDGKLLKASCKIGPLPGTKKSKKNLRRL
UniProt P35916, whole entry, looked up: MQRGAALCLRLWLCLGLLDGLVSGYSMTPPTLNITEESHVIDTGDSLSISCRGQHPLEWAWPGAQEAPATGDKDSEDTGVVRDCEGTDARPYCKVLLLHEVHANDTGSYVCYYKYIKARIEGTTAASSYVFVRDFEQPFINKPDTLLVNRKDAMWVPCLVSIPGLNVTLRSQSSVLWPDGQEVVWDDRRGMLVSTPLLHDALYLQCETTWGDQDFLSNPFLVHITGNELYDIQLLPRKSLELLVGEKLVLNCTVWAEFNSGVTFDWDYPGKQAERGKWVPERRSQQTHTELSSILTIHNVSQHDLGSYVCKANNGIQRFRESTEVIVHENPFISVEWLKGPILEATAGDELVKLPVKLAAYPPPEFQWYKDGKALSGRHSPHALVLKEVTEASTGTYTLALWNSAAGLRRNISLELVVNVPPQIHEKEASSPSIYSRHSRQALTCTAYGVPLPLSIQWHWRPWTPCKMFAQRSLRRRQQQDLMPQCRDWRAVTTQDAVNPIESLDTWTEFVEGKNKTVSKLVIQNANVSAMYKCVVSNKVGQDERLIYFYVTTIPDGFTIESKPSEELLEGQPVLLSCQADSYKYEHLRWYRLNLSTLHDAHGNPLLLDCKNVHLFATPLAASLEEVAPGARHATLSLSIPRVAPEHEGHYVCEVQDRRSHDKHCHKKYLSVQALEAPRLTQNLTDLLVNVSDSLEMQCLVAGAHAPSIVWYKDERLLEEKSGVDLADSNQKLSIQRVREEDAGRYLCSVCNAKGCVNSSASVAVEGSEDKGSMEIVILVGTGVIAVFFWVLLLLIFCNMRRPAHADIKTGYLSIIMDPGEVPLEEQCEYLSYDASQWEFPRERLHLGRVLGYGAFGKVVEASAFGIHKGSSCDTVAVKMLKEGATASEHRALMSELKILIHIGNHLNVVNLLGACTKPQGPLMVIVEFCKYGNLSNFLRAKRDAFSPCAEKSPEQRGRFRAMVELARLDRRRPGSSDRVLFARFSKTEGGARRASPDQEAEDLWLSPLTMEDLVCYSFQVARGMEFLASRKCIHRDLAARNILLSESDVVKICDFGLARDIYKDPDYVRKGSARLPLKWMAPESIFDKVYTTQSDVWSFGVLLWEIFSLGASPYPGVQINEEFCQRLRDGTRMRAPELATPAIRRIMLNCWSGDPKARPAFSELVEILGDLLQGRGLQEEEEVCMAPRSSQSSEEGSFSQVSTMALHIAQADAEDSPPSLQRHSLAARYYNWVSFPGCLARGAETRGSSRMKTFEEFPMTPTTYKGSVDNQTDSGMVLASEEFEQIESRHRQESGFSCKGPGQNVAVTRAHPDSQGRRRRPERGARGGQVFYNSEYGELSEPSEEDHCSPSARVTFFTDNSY

Compound: Cc1cn(-c2cc(NC(=O)c3ccc(C)c(Nc4nccc(-c5cccnc5)n4)c3)cc(C(F)(F)F)c2)cn1 [nilotinib]
Test: log2 fold change, soluble protein after heating vs DMSO (PISA); higher = thermal stabilisation; K562 cells, 10 uM, 30 min; active = over 0.2 and 3.5 SD of the protein, either way, in both replicates (recomputed)
Method in brief: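 Quantification of soluble protein used TMTpro 16plex LC-MS/MS, with channel sums equalised. Samples were the supernatant after 21,000xg for 90 min of pooled aliquots from K562 cells (2×10^6 cells/mL) treated with 10 μM compound for 30 min, heated for 3 min over 48°C-58°C, and extracted in PBS with 0.5% NP-40 at 4°C. Values, from duplicates, describe thermal stability against control samples on a log2 fold-change scale.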

log2 fold change, inactive:
FBXO22 (UniProt Q8NEZ5) -0.024
FNBP4 isoform 2 (UniProt Q8N3X1) -0.012
FGFR1OP (UniProt O95684) 0.006
FCSK isoform 2 (UniProt Q8N0W3) 0.072
FAM76B (UniProt Q5HYJ3) -0.069
FLVCR1 (UniProt Q9Y5Y0) 0.039
FAM98A (UniProt Q8NCA5) 0.006
FERMT2 isoform 3 (UniProt Q96AC1) 0.016
FN3K (UniProt Q9H479) 0.02
FEM1B (UniProt Q9UK73) -0.031
FN1 isoform 1 (UniProt P02751) 0.102
FN3KRP (UniProt Q9HA64) -0.004
FIP1L1 (UniProt Q6UN15) 0.102
FLYWCH2 (UniProt Q96CP2) 0.019
FDX1 (UniProt P10109) 0.022
FLOT2 (UniProt Q14254) -0.108
FAM98B (UniProt Q52LJ0) 0.101
FLOT1 (UniProt O75955) -0.057
FBXO5 (UniProt Q9UKT4) 0.003
FLT4 (UniProt P35916) 0.405
FLAD1 (UniProt Q8NFF5) -0.024
FLII (UniProt Q13045) -0.032
FLNB isoform 8 (UniProt O75369) 0.004

2 records picked at random from those above, as already listed:
log2 fold change, inactive:
FBXO22 (UniProt Q8NEZ5) -0.024
FLOT2 (UniProt Q14254) -0.108
